# Reference: PubChem BioAssay AID540276 (National Center for Advancing Translational Sciences (NCATS), 2011)
# “And” between values parts separate entries of the source, which are not always exact repeats. Identical values can stand only once. The campaign covered roughly 300,000 compounds. About 5,400 (1.8%) were called active. Inconclusive results, whose numbers are uncertain, are shown with a selection of clear calls. Calls follow the shape of the full dose curve; tested in HEK293 cells. A potency beside an inconclusive call is a rough fit, not a confirmed value.
# Assay: qHTS for inhibitors of binding or entry into cells for Marburg Virus
# Conditions: Marburg virus pseudotyped entry inhibition, cell reporter; activity change, negative = inhibition: at 37.8 µM (top of the series) unless noted
# % is scaled to controls: 0 for no effect and ±100 for the full control effect; potency is read from the fitted curve at half-maximal effect.
SMILES,"activity change, negative = inhibition",Potency
CC(C)c1ccc(S(=O)(=O)N2CCN(C(=O)C3CCCC3)CC2)cc1,inactive: -25% [at 46.1 µM],
CCN(CC)S(=O)(=O)c1cccc(NC(=O)CN2C(=O)NC3(CCOc4ccccc43)C2=O)c1 (stereo not drawn),inactive: -0.503%,
Cc1ccc(NC(=O)c2ccc3c(c2)nnn3C)cc1,inactive: 5.27%,
CC(C)CN(C(=O)COC(=O)CCc1nc2ccccc2s1)c1c(N)n(Cc2ccccc2)c(=O)[nH]c1=O,,"inconclusive: 0.112 µM [inhibitor, full curve, poor fit]"
Cc1ccc(C)c(S(=O)(=O)N2CCCCC2CCNC(=O)C(=O)NCc2ccncc2)c1 (stereo not drawn),,"inconclusive: 1.26 µM [inhibitor, partial curve, poor fit]"
C=CCN1C(=O)/C(=C/C=C2/N(CC)c3ccc(S(=O)(=O)N(C)C)cc3N2CC)SC1=S,,"inconclusive: 6.51 µM [inhibitor, single point]"
O=C(CSc1nnc(CN2CCOCC2)n1-c1ccc(Cl)cc1)N1CCc2ccccc21,,inactive
Cc1ccc(S(=O)(=O)Nc2ccc3[nH]c(=O)[nH]c3c2)c(C)c1,,"inconclusive: 5.01 µM [inhibitor, single point]"
CCOC(=O)c1cc(-c2csc(COc3ccccc3Cl)n2)on1,inactive: -29%,
CCOC(=O)[C@H]1CCCN(c2nc3ccccc3nc2[C@@H](C#N)C(=O)OC(C)C)C1,,"inconclusive: 3.98 µM [inhibitor, full curve]"
CCN(C(=O)Cn1c(=O)n(Cc2ccc3c(c2)OCO3)c(=O)c2ccc(C(=O)NC3CCCCC3)cc21)c1cccc(C)c1,,"inconclusive: 22.4 µM [inhibitor, partial curve, poor fit]"
CN1CCN(Cc2nc3ccccc3c(=O)n2Cc2nc(-c3ccc4ccccc4c3)cs2)CC1,,"inconclusive: 14.1 µM [inhibitor, single point] and inconclusive: 35.5 µM [inhibitor, single point]"
Cc1ccccc1-c1nc(SCc2cccnc2)c2c(=O)n(C)c(=O)n(C)c2n1,inactive: -0.374% [at 46.1 µM],
COCCn1c(C)cc(/C=C(\C#N)C(=O)OC(C)C(=O)Nc2ccc(NC(C)=O)cc2)c1C (stereo not drawn),,"inconclusive: 35.5 µM [activator, single point]"
COc1ccccc1NS(=O)(=O)c1cc(NC(=O)c2ccco2)ccc1N1CCOCC1,inactive: -5.01% [at 46.1 µM],
CC(=C/c1ccccc1)/C=N/NC(=O)c1ccc2nc[nH]c2c1,,"inconclusive: 0.398 µM [inhibitor, partial curve, poor fit]"
COc1ccccc1NC(=S)NCC1CCCO1 (stereo not drawn),inactive: 4.76% [at 46.1 µM],
COc1ccc(C(=O)NC2CCCCCC2)cc1S(=O)(=O)N1CCCc2ccccc21,,"inconclusive: 14.1 µM [inhibitor, single point]"
CCN(CC)c1ccc(/C=C(/C#N)c2nc3ccc(C)cc3[nH]2)c(OC(C)C)c1,,"inconclusive: 29.1 µM [inhibitor, single point]"
N#Cc1ccc(Cn2ccnc2C(=O)Nc2ccccc2)cc1,inactive: 10.3% [at 46.1 µM],
O=C1C(Cl)=C(N2CCCCC2)C(=O)C(Cl)=C1c1cnc(N2CCCCC2)s1,,"inconclusive: 29.1 µM [inhibitor, single point]"
O=C1c2ccccc2C(=O)N1Cc1ccccc1F,inactive: 19.2% [at 46.1 µM],
C[C@H](NC(=O)NCc1cccs1)C(=O)O,inactive: 8.28%,
C/C(=N\NC(=O)COc1ccccc1-c1ccccc1)c1ccccn1,,active: 3.98 µM

SMILES,"activity change, negative = inhibition",Potency
COC(C(=O)N1CCC(n2nccc2NC(=O)C2CC2)CC1)c1ccccc1 (stereo not drawn),inactive: 17.9% [at 46.1 µM],
COc1cc(/C=N/Nc2nncn2N)ccc1OCc1c(C)no[n+]1[O-],inactive: -0.762%,
CCNc1nc(Cl)nc(NC(C)C)n1,,"inconclusive: 0.447 µM [inhibitor, full curve]"
O=c1c2ccccc2c(-c2ccccc2)nn1-c1cc(Cl)ccc1[N+](=O)[O-],inactive: -26.7%,
O=C(NNC(=O)c1cc2ccccc2cc1O)c1cccs1,,"inconclusive: 0.891 µM [activator, full curve, poor fit]"
COc1ccc(OCc2ccc(-c3nc(C#N)c(NCc4cccnc4)o3)o2)cc1,inactive: -12% [at 46.1 µM],
O=C(NNC(=O)c1cccs1)c1ccncc1,inactive: 20.1% [at 46.1 µM],
CCC(NC(=O)c1cc(COc2ccc(OC)cc2Cl)on1)c1ccncc1 (stereo not drawn),,"inconclusive: 8.91 µM [inhibitor, partial curve, poor fit]"
CCOC(=O)C1Cc2c([nH]c3ccccc23)C(C)N1 (stereo not drawn),,"inconclusive: 6.51 µM [inhibitor, single point]"
N#Cc1cnn2c3c(cnc12)C(=O)N1CCc2ccccc2C1C3 (stereo not drawn),inactive: -6.82% [at 46.1 µM],
Cc1ccccc1-n1nc2c(c1NC(=O)c1ccco1)CS(=O)(=O)C2,,"inconclusive: 35.5 µM [activator, single point]"
COC(=O)c1ccc(CSc2cc(C)c3cccc(C)c3n2)o1,inactive: -13.5%,
O=C(CCc1ccccc1)NNC(=O)c1ccccc1C(=O)O,inactive: -1.62%,
CCC1CC2C(=O)C(c3nc(C)cs3)=COC2CC1O (stereo not drawn),inactive: 0.124% [at 46.1 µM],
COc1cccc(OC)c1OC(=O)/C=C/c1ccc(C)o1,inactive: -18.5% [at 46.1 µM],
Cc1cc([N+](=O)[O-])nn1Cc1ccc(C(=O)N/N=C/c2ccc(O)cc2O)cc1,,active: 7.31 µM
CC(C)CCN(Cc1ccco1)S(=O)(=O)c1ccc(-c2ccc(=O)[nH]n2)s1,,"inconclusive: 35.5 µM [inhibitor, single point]"
CSc1ccc(C(=S)N2CCN(Cc3ccccc3)CC2)cc1,inactive: -5.44%,
C=C(C)CSc1nnc([C@@H](N)Cc2ccccc2)o1,inactive: 16.5%,
CC(=O)NC1=NN(C(C)=O)C(C)(c2cccnc2)S1 (stereo not drawn),,"inconclusive: 0.794 µM [inhibitor, partial curve, poor fit]"
CCc1nc(Nc2ccc(OC)c(OC)c2)c2nnn(Cc3ccccc3Cl)c2n1,,"inconclusive: 7.08 µM [inhibitor, partial curve]"
CCCC1=NN(C(=O)C(=O)Nc2ccc(Br)cc2)C(O)(C(F)(F)F)C1 (stereo not drawn),,"inconclusive: 25.1 µM [inhibitor, single point]"
Cc1cccc(NC(=O)CSc2nnc([C@@H](N)Cc3c[nH]c4ccccc34)o2)c1C,inactive: 7.8%,
c1ccc(CNc2nc(NCc3ccco3)nc(N3CCOCC3)n2)cc1,,"inconclusive: 29.1 µM [inhibitor, single point]"
